Data published in PMC5082900.
No constants are given. Whether binding was seen depends on the method and setting. Binding seen in cells or lysates may run through a third protein. Some results given as binding are weak or reduced against the parent protein; the word gives no strength. For some assays here: Where a sequence is shown, tags or fusion partners need not be part of it.

Amino acid sequences for entries named in this document (tags omitted).
UniProt Q00987: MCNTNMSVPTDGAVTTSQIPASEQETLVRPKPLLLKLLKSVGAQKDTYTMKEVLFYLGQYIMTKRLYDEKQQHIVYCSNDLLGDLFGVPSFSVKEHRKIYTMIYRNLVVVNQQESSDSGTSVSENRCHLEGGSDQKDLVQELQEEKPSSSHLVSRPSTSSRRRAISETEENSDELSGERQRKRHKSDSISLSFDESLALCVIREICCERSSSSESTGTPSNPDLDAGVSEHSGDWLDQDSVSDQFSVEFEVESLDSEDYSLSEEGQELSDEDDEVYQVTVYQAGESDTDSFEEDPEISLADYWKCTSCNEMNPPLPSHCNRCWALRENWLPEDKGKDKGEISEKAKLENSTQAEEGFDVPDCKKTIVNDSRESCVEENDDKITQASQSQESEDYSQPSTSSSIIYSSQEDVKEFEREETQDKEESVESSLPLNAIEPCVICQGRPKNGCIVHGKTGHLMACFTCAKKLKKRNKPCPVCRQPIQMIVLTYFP

Columns and labels:
[1] = target: T1, Flag-tagged IRF-1 (interferon regulatory factor 1) (UniProt P10914); test: co-IP; whole-cell extracts of HEK293 cells transfected with Flag-IRF-1 and Tat and/or GFP-HDM2; anti-Flag M2 resin or control IgG; blots with anti-Tat, anti-GFP, anti-IRF-1
T1 sequence: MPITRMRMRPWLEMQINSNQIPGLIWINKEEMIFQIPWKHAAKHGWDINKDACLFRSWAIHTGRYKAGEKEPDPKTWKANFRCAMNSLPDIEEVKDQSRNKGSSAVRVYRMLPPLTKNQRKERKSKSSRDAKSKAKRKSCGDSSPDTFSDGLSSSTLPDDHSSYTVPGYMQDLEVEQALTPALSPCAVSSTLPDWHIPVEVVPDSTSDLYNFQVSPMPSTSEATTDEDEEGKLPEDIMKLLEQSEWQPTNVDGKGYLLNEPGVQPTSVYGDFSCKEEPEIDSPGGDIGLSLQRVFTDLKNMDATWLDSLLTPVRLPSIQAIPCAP

[2] = target: T2, IRF-1^291 (IRF-1 mutant with the 34-aa COOH terminus deleted) (UniProt P10914); test: co-IP; whole-cell extracts (300 ug) of HEK293 cells cotransfected with Flag-Tat, GFP-HDM2 and IRF-1^291; polyclonal anti-IRF-1 antibody overnight at 4°C, then protein A/G-Sepharose; Tat and HDM2 detected by Western blot
T2 sequence: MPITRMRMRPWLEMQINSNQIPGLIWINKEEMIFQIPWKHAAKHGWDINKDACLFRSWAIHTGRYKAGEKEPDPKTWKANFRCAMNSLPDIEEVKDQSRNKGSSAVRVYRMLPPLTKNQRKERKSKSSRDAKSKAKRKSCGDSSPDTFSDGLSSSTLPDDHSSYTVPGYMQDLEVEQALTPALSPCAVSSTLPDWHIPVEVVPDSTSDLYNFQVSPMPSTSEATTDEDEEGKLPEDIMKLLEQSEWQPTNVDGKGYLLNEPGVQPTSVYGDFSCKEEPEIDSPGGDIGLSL

- binding [1]: binds
- binding [2]: binds
Substance: GFP-tagged HDM2 (human double minute 2 protein) (from UniProt Q00987 1-491) (enzyme)
